The source of these data is article doi:10.1101/289702.

By UniProt entry, the sequences of proteins in these tests, tags left out.
UniProt P38486: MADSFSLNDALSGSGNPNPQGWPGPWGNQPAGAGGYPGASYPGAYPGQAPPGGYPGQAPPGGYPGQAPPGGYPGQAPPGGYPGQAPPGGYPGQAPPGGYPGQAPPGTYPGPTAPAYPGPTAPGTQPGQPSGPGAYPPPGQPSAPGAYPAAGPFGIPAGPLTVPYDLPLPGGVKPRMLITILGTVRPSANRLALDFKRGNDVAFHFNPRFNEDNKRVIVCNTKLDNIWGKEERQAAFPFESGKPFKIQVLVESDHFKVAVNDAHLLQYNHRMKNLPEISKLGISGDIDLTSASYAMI
UniProt P17931: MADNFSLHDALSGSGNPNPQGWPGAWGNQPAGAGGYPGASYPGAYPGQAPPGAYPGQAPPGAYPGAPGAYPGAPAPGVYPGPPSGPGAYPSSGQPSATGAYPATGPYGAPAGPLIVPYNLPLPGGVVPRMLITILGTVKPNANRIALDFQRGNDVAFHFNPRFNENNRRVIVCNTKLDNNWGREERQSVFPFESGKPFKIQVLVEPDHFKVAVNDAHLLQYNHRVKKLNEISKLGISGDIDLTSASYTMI

For experiment [1], the target named is galectin-3 (dog (endogenous in MDCK)) (UniProt P38486). Briefly: co-IP.
In a further experiment the target is Gal3-GFP (UniProt P17931). Briefly: co-IP.

No constants are given. Whether binding was seen depends on the method and setting. In cells and extracts the contact can be indirect. Some results given as binding are weak or reduced against the parent protein; the word gives no strength. For some assays here: Tags and fused reporters may be left off the sequences shown.

B1: cystinosin-GFP fusion protein (protein, UniProt O60931 23-367)
chain: SVSLTVPPVVKLENGSSTNVSLTLRPPLNATLVITFEITFRSKNITILELPDEVVVPPGVTNSSFQVTSQNVGQLTVYLHGNHSNQTGPRIRFLVIRSSAISIINQVIGWIYFVAWSISFYPQVIMNWRRKSVIGLSFDFVALNLTGFVAYSVFNIGLLWVPYIKEQFLLKYPNGVNPVNSNDVFFSLHAVVLTLIIIVQCCLYERGGQRVSWPAIGFLVLAWLFAFVTMIVAAVGVTTWLQFLFCFSYIKLAVTLVKYFPQAYMNFYYKSTEGWSIGNVLLDFTGGSFSLLQMFLQSYNNDQWTLIFGDPTKFGLGVFSIVFDVVFFIQHFCLYRKRPGYDQLN
In the case of B1, the binding entry in experiment [1] is “binds”.

B2: CTNS-DsRed (protein, UniProt O60931 23-367)
chain: B1 chain
Take B2: in the experiment with Gal3-GFP, the binding result was “binds”.
